This test has as its target SlGrx9-Flag (tomato (Solanum lycopersicum)). Kind of test: co-IP; SlTrxh-GFP and SlGrx9-Flag co-expressed in N. benthamiana leaves for 48-72 h; Anti-Flag Affinity Gel; blots with anti-GFP and anti-Flag.

The text below walks through data of PMC11374535.

These are yes or no findings as the source states them, for the method shown. Binding seen in cells or lysates may run through a third protein. Binding can be weak; no strength is given. Where a sequence is shown, tags or fusion partners need not be part of it.

B1: SlTrxh-GFP (protein, UniProt Q9LKW0 65-175)
chain: EDYLVKKLSAKEIQELIKGERNVPLIIDFYATWCGPCILMAQELEMLAVEYENNALIVKVDTDDEYEFARDMQVRGLPTLYFISPDSSKDAIRTEGLIPIQMMRDIIDNDL
Turning to B1, the binding result is “binds”.
